Among all 300,000 compounds or so, about 5,400 (1.8%) were called active. The shares of active, inactive and inconclusive entries below differ from those in the screen. Calls come from the whole dose curve; tested in HEK293 cells. Where the call is inconclusive, the potency comes from a doubtful curve fit.
Assay: qHTS for inhibitors of binding or entry into cells for Marburg Virus
Conditions: Marburg virus pseudotyped entry inhibition, cell reporter; series mostly up to 37.8 µM
Potency is the fitted concentration of half-maximal effect.

Compound	Potency
CC(=O)Nc1ccc(NC(=O)CSc2nncn2C)cc1	inactive
NC(=O)NC(=O)COC(=O)c1cccc(NS(=O)(=O)/C=C/c2ccccc2)c1	inconclusive: 6.31 µM [inhibitor, single point]
O=C1CC(N2CCN(c3ccc(C(=O)c4ccc(F)cc4)cc3)CC2)C(=O)N1 (configuration not stated)	inconclusive: 4.47 µM [activator, full curve, poor fit]
COc1cccc(C2=NNC(=NCc3ccccc3)SC2)c1	inconclusive: 20 µM [inhibitor, single point]
N=C(N)Cc1ccccc1Sc1ccccc1	inconclusive: 11.2 µM [inhibitor, partial curve, poor fit]
CCc1ccc(NC(=O)Cn2c(=O)n(CCCC(=O)NCc3ccco3)c(=O)c3ccccc32)cc1	inconclusive: 6.31 µM [activator, single point]
CC(Sc1nnc(-c2ccc(C(C)(C)C)cc2)n1C)C(N)=O (configuration not stated)	inactive
C=CCc1cc(C)ccc1OCCn1ccnc1	inactive
Cc1cc(NS(=O)(=O)c2ccc(NC(=O)Nc3ccccc3)cc2)no1	inconclusive: 0.103 µM [activator, full curve, poor fit]
COc1ccc(NC(=O)c2c(C)oc3ccc(O)c(CN4CCN(Cc5ccccc5)CC4)c23)cc1	inconclusive: 7.08 µM [inhibitor, partial curve, poor fit]
O=[N+]([O-])c1ccc(N2CCN(c3cccc(Cl)c3)CC2)cn1	active: 8.91 µM
C=CCN1CCc2c(cc(O)c(O)c2Br)[C@@H](c2ccccc2)C1	inconclusive: 1.12 µM [inhibitor, partial curve, poor fit]
CCOC(=O)c1cnc2ccc(OCC)cc2c1N(C)Cc1ccccc1	inconclusive: 3.98 µM [inhibitor, full curve, poor fit]
CCOC(=O)c1ccc(N2C(=O)c3n[nH]c(-c4cccs4)c3C2c2ccc(Cl)cc2Cl)cc1 (configuration not stated)	inconclusive: 25.1 µM [inhibitor, single point]
CCOC(=O)Cn1nnnc1C(C(C)C)N(Cc1cc2c(C)cc(C)cc2[nH]c1=O)C1CCCC1 (configuration not stated)	active: 8.91 µM
CC(=O)Nc1ccc(S(C)(=O)=O)c(C)c1	inconclusive: 3.26 µM [inhibitor, partial curve, poor fit]
Cn1cc(C(=O)N2CCN(C(=O)c3ccco3)CC2)c2c3ccccc3n(C)c2c1=O	inconclusive: 25.9 µM [inhibitor, single point]
COc1ccc(C(=O)Nc2cccc(C(=O)N3CCCCC3)c2)cc1	inactive
COc1ccc(Cl)cc1N(CC(=O)NC1CC2CCC1C2)S(=O)(=O)c1ccccc1 (configuration not stated)	inconclusive: 35.5 µM [inhibitor, single point]
Cc1nn(CC(C)C)c(Cl)c1C(=O)N(c1ccc(Cl)cc1F)S(C)(=O)=O	inconclusive: 11.2 µM [inhibitor, partial curve, poor fit]
O=S(=O)(c1ccc(Br)cc1)N1CCOC12CCCCC2	inactive

Some of these compounds in order of heavy-atom count, high to low:
Compound	Potency
Cc1cc(NS(=O)(=O)c2ccc(NC(=O)Nc3ccccc3)cc2)no1	inconclusive: 0.103 µM [activator, full curve, poor fit]
COc1ccc(C(=O)Nc2cccc(C(=O)N3CCCCC3)c2)cc1	inactive
O=[N+]([O-])c1ccc(N2CCN(c3cccc(Cl)c3)CC2)cn1	active: 8.91 µM

Following part

Compound	Potency
O=C(Nc1cccc(S(=O)(=O)Nc2ccc(Cl)cc2)c1)c1ccc(Cl)nc1	inconclusive: 5.17 µM [inhibitor, partial curve]
CC(=O)Nc1nc(-c2ccc3ccccc3c2)cs1	inconclusive: 0.316 µM [activator, full curve, poor fit]
CCOC(=O)CC1C(=O)NCCN1c1nc2c(C)cccn2c(=O)c1/C=C1\SC(=S)N(C(C)CC)C1=O (configuration not stated)	inconclusive: 3.98 µM [inhibitor, partial curve, poor fit]
Cc1cc(C(F)F)n2nc(C(=O)Nc3sc4c(c3C#N)CCC(C)C4)nc2n1 (configuration not stated)	inactive
NS(=O)(=O)c1ccc2c(c1)C1C=CCC1C(C1CC=CCC1)N2 (configuration not stated)	inconclusive: 29.1 µM [inhibitor, single point]
CC1CCN(C(=O)CN2C(=O)c3ccccc3S2(=O)=O)CC1	inconclusive: 12.6 µM [inhibitor, partial curve, poor fit]
CCCCOc1ccc(C(=O)NN2CCN(C)CC2)cc1	inconclusive: 2.82 µM [activator, partial curve, poor fit]
NC1=CC(=O)C(=O)c2ccccc21	inconclusive: 10 µM [inhibitor, partial curve, poor fit]
N/C(CN1CCSCC1)=N\OCc1c(F)cccc1Cl	inactive
Cc1cc(C)cc(OCC(=O)Nc2ccc(CN3CCCCC3)cc2)c1	inconclusive: 3.55 µM [inhibitor, single point]
CCCCOc1ccc(-c2c(C(=O)Nc3ccccc3)c(C)[nH]c(=S)c2C#N)cc1	inconclusive: 3.16 µM [inhibitor, single point]
COc1ccc(Cl)cc1NC(=O)NCC1CCN(Cc2ccccc2F)CC1	inconclusive: 35.5 µM [inhibitor, single point]
CC1CN(CC(=O)N2CCc3[nH]c4ccccc4c3C2)CC(C)O1 (configuration not stated)	inconclusive: 2.82 µM [activator, single point]
COc1ccc(CSc2nnc3[nH]c(=O)cc(N)n23)cc1	inactive
Cn1c(C(=O)N[C@@H](C(=O)O)c2ccccc2)cc2cc(F)ccc21	inconclusive: 4.47 µM [inhibitor, single point]
CC(=O)c1sc(-c2ccccc2)cc1N	inactive
NC(=N\N=Cc1ccco1)/C(N)=N/N=Cc1ccco1	inconclusive: 35.5 µM [activator, single point]
C#CCN1CCN(c2cccc(C(F)(F)F)c2)CC1	inconclusive: 2.82 µM [activator, single point]
O=C(Nc1cccnc1)C1(c2ccc(Cl)cc2)CCCC1	inconclusive: 16.4 µM [inhibitor, partial curve, poor fit]
CC1=N/C(=C\c2ccc(OC(C)C)cc2)C(=O)N1c1ccc(C(=O)O)cc1	inconclusive: 16.4 µM [inhibitor, single point]
O=C(Nc1ccc(F)cc1)Nc1ccc(Cl)cn1	inconclusive: 32.6 µM [activator, partial curve, poor fit]

Source: PubChem BioAssay AID540276 (National Center for Advancing Translational Sciences (NCATS), 2011)
